According to the supplement of paper PMC4604168 (melanoma cell lines):
The list shows a part of the results. Repeats are few or missing, and single values can be far off.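 Cells were imaged in 1,536-well plates, and nuclei stained with an antibody against cleaved PARP were counted against all DNA-stained nuclei to give the apoptosis fraction. Screening doses were chosen to leave most cells alive, and resting and induced cleaved-PARP levels differ strongly between cell lines.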

Legend:
Assay in all cases: cleaved PARP positive nuclei fraction relative to DMSO control; melanoma cells; higher = more apoptosis
Settings in all cases: library dose: low library concentration; 72 h
[1] = system: 501Mel
[2] = system: A101D
[3] = system: A2058
[4] = system: A375
[5] = system: C32
[6] = system: CBRC008 (line from a melanoma biopsy)
[7] = system: CBRC013 (line from a melanoma biopsy)
[8] = system: CBRC014 (line from a melanoma biopsy)
[9] = system: CBRC016 (line from a melanoma biopsy)
[10] = system: CBRC017 (line from a melanoma biopsy)
[11] = system: COLO792
[12] = system: COLO800
[13] = system: COLO829
[14] = system: G361
[15] = system: IPC-298
[16] = system: IST-MEL1
[17] = system: LB2518-MEL
[18] = system: LOXIMVI
[19] = system: MEL-HO

C=C(c1ccc(C(=O)O)cc1)c1cc2c(cc1C)C(C)(C)CCC2(C)C [Bexarotene] + CC1(C)NC(=O)N(c2ccc([N+](=O)[O-])c(C(F)(F)F)c2)C1=O [nilutamide] (first compound 2 µM, partner dose 1 µM)
cleaved PARP positive nuclei fraction [1]: 155% | cleaved PARP positive nuclei fraction [2]: 160% | cleaved PARP positive nuclei fraction [3]: 62.5% | cleaved PARP positive nuclei fraction [4]: 65.3% | cleaved PARP positive nuclei fraction [5]: 202% | cleaved PARP positive nuclei fraction [6]: 171% | cleaved PARP positive nuclei fraction [7]: 145% | cleaved PARP positive nuclei fraction [8]: 117% | cleaved PARP positive nuclei fraction [9]: 175% | cleaved PARP positive nuclei fraction [10]: 104% | cleaved PARP positive nuclei fraction [11]: 162% | cleaved PARP positive nuclei fraction [12]: 101% | cleaved PARP positive nuclei fraction [13]: 93.5% | cleaved PARP positive nuclei fraction [14]: 44.8% | cleaved PARP positive nuclei fraction [15]: 94.1% | cleaved PARP positive nuclei fraction [16]: 97% | cleaved PARP positive nuclei fraction [17]: 142% | cleaved PARP positive nuclei fraction [18]: 26.6% | cleaved PARP positive nuclei fraction [19]: 144%

Cc1cc(Nc2cc(N3CCN(C)CC3)nc(/C=C/c3ccccc3)n2)n[nH]1 + COc1cc(Nc2ncc(F)c(Nc3ccc4c(n3)NC(=O)C(C)(C)O4)n2)cc(OC)c1OC [Tamatinib] (first compound 0.04 µM, partner dose 0.4 µM)
cleaved PARP positive nuclei fraction [1]: 40.5% | cleaved PARP positive nuclei fraction [2]: 80.8% | cleaved PARP positive nuclei fraction [3]: 117% | cleaved PARP positive nuclei fraction [4]: 57.1% | cleaved PARP positive nuclei fraction [5]: 143% | cleaved PARP positive nuclei fraction [6]: 126% | cleaved PARP positive nuclei fraction [7]: 137% | cleaved PARP positive nuclei fraction [8]: 95% | cleaved PARP positive nuclei fraction [9]: 27.2% | cleaved PARP positive nuclei fraction [10]: 92.5% | cleaved PARP positive nuclei fraction [11]: 224% | cleaved PARP positive nuclei fraction [12]: 111% | cleaved PARP positive nuclei fraction [13]: 22.2% | cleaved PARP positive nuclei fraction [14]: 66.9% | cleaved PARP positive nuclei fraction [15]: 57.8% | cleaved PARP positive nuclei fraction [16]: 49.9% | cleaved PARP positive nuclei fraction [17]: 422% | cleaved PARP positive nuclei fraction [18]: 191% | cleaved PARP positive nuclei fraction [19]: 71%

C[C@@H](Oc1cc(-c2cnn(C3CCNCC3)c2)cnc1N)c1c(Cl)ccc(F)c1Cl [Crizotinib] + CO[C@@H]1[C@H](N(C)C(=O)c2ccccc2)C[C@H]2O[C@]1(C)n1c3ccccc3c3c4c(c5c6ccccc6n2c5c31)C(=O)NC4 [Midostaurin] (first compound 0.2 µM, partner dose 0.08 µM)
cleaved PARP positive nuclei fraction [1]: 78.2% | cleaved PARP positive nuclei fraction [2]: 86.2% | cleaved PARP positive nuclei fraction [3]: 67.8% | cleaved PARP positive nuclei fraction [4]: 242% | cleaved PARP positive nuclei fraction [5]: 132% | cleaved PARP positive nuclei fraction [6]: 207% | cleaved PARP positive nuclei fraction [7]: 122% | cleaved PARP positive nuclei fraction [8]: 109% | cleaved PARP positive nuclei fraction [9]: 210% | cleaved PARP positive nuclei fraction [10]: 86% | cleaved PARP positive nuclei fraction [11]: 164% | cleaved PARP positive nuclei fraction [12]: 96.8% | cleaved PARP positive nuclei fraction [13]: 130% | cleaved PARP positive nuclei fraction [14]: 205% | cleaved PARP positive nuclei fraction [15]: 93.9% | cleaved PARP positive nuclei fraction [16]: 34.4% | cleaved PARP positive nuclei fraction [17]: 201% | cleaved PARP positive nuclei fraction [18]: 29.9% | cleaved PARP positive nuclei fraction [19]: 36.5%

CCCS(=O)(=O)Nc1ccc(F)c(C(=O)c2c[nH]c3ncc(Cl)cc23)c1F + CC1(C)NC(=O)N(c2ccc([N+](=O)[O-])c(C(F)(F)F)c2)C1=O [nilutamide] (first compound 0.08 µM, partner dose 1 µM)
cleaved PARP positive nuclei fraction [1]: 79.8% | cleaved PARP positive nuclei fraction [2]: 89.7% | cleaved PARP positive nuclei fraction [3]: 112% | cleaved PARP positive nuclei fraction [4]: 204% | cleaved PARP positive nuclei fraction [5]: 81.5% | cleaved PARP positive nuclei fraction [6]: 143% | cleaved PARP positive nuclei fraction [7]: 61.3% | cleaved PARP positive nuclei fraction [8]: 88.2% | cleaved PARP positive nuclei fraction [9]: 110% | cleaved PARP positive nuclei fraction [10]: 106% | cleaved PARP positive nuclei fraction [11]: 102% | cleaved PARP positive nuclei fraction [12]: 97.2% | cleaved PARP positive nuclei fraction [13]: 185% | cleaved PARP positive nuclei fraction [14]: 174% | cleaved PARP positive nuclei fraction [15]: 61.3% | cleaved PARP positive nuclei fraction [16]: 298% | cleaved PARP positive nuclei fraction [17]: 43.6% | cleaved PARP positive nuclei fraction [18]: 57.8% | cleaved PARP positive nuclei fraction [19]: 225%
